Here are results for 32 sequences from the supplement of paper PMC10338343.

In experiment [1] the test system is MILI (PIWIL2) piRISC loaded with L1MC piRNA (26 nt). The experiment is described as follows: pre-steady-state target cleavage rate (min^-1); higher = faster piRNA-guided slicing of the target. The following applies: guide: L1MC piRNA 5'p-UAACUAAAUACUAUGCAAGCUGUAGG
The procedure, abridged:
(§1)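 The pre-steady-state cleavage rate was derived from a burst-and-steady-state fit of Cleave-'n-Seq data. For these assays, 1 nM active affinity-purified piRISC loaded with a single synthetic guide was mixed with […] a transcribed, DNA-blocked target RNA library in HEPES–potassium acetate buffer at 33 °C, with or without 500 nM GTSF1 partner protein, for 0–8 or 0–960 min. Sequencing counts of uncleaved targets were normalised to depth and to weakly complementary targets, and k3 was capped at 0.0001 min^-1 after three trials were pooled.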

Experiment [2] deals with MIWI (PIWIL1) piRISC loaded with L1MC piRNA (30 nt). The experiment is described as above. The conditions noted are these: guide: L1MC piRNA 5'p-UAACUAAAUACUAUGCAAGCUGUAGGUCCU
The procedure, abridged:
as §1

In experiment [3] the test system is EfPiwi piRISC loaded with L1MC piRNA (26 nt). Put plainly: pre-steady-state target cleavage rate (min^-1); guide: L1MC piRNA 5'p-UAACUAAAUACUAUGCAAGCUGUAGG; MIWI and MILI are mouse PIWI proteins and EfPiwi is from a freshwater sponge; tags in brackets are library labels; higher = faster piRNA-guided slicing of the target. In a few lines: as §1
[4] abbreviates: auxiliary factor: none (no GTSF1).
Setting [5] is: auxiliary factor: 500 nM Ephydatia muelleri Gtsf1.
Setting [6] is: auxiliary factor: none (no Gtsf1).
[7] abbreviates: auxiliary factor: 500 nM mouse GTSF1.

± gives the standard deviation. The entries are a selection whose mix differs from that of the whole data set. The uncertainty is large for many entries. The list shows a part of the results.

Take “UCCUCCUACAGCUUGCAUAGAUAAAUCAAA [g11:g26:cont:t1A]”: the “pre-steady-state target cleavage rate” value in experiment [1] (setting [4]) was 0.000212 ± 0.016; in experiment [2] (setting [4]), 0.000263 ± 0.016; in experiment [3] (setting [5]) it was 0.000732 ± 0.0072; in experiment [3] (setting [6]), 0.000184 ± 0.036.
For the sequence UCCUGCUACAGCUUGGUUAGUAUUUACAAA, the “pre-steady-state target cleavage rate” value in experiment [1] (setting [4]) was 0.000926 ± 0.0069; in experiment [2] (setting [4]), 0.00104 ± 0.0062; in experiment [3] (setting [5]), 0.000461 ± 0.0082; in experiment [3] (setting [6]), 0.000752 ± 0.0095.
Turning to UCCUGGUACAGCUUGCUUAGUAUUUACAAA, the “pre-steady-state target cleavage rate” value in experiment [1] (setting [4]) came to 0.00122 ± 0.0045; in experiment [2] (setting [4]) it was 0.0023 ± 0.0028; in experiment [3] (setting [5]), 0.00117 ± 0.0027; in experiment [3] (setting [6]) it was 0.000263 ± 0.03.
On the same counts, the results for UCCUGGUACAGCUUCCAUAGUAUUUACUUA are 0.00104 ± 0.0087, 0.000969 ± 0.0072, 0.000623 ± 0.013 and 0.00035 ± 0.024.
On to UCCUGGAUGUCGAACGAUAGUAUUUAGUUA, for which the “pre-steady-state target cleavage rate” value is 0.000219 ± 0.011 in experiment [1] (setting [7]), 0.000171 ± 0.015 in experiment [2] (setting [7]), less than 0.0001 in experiment [3] (setting [5]) and 0.000101 ± 0.041 in experiment [3] (setting [6]).
As for UCCUGGUACUCCUUGCAUAGUAUUUUCAAA, the “pre-steady-state target cleavage rate” value in experiment [1] (setting [4]) amounted to 0.00151 ± 0.0044; in experiment [2] (setting [4]) it was 0.00149 ± 0.0047; in experiment [3] (setting [5]), 0.000594 ± 0.0044; in experiment [3] (setting [6]), 0.000119 ± 0.043.
With UCCUGGAUGUCGAUGCAUGAGUAUUUAGUUA, the “pre-steady-state target cleavage rate” value in experiment [1] (setting [4]) is 0.00061 ± 0.0086; in experiment [2] (setting [4]), 0.00066 ± 0.01; in experiment [3] (setting [5]) it was 0.00036 ± 0.01; in experiment [3] (setting [6]), 0.000324 ± 0.025.
On to UCCUCCAUGAGCUUGCAUAGUAUUUUCAAA, for which the “pre-steady-state target cleavage rate” value in experiment [1] (setting [4]) was 0.000652 ± 0.0071; in experiment [2] (setting [4]), 0.00175 ± 0.0032; in experiment [3] (setting [5]), 0.00215 ± 0.0024; in experiment [3] (setting [6]), 0.000225 ± 0.025.
For UCCUGGAACAGCUUGCAUAGAUUUUAGAAA, the “pre-steady-state target cleavage rate” value in experiment [1] (setting [4]) worked out at 0.000778 ± 0.0066; in experiment [2] (setting [4]), 0.000461 ± 0.0063; in experiment [3] (setting [5]) it was 0.00113 ± 0.0024; in experiment [3] (setting [6]) it was 0.000161 ± 0.025.
As to UCCUCCUACAGCUUGCAAUGUAUUUAGAAA, the “pre-steady-state target cleavage rate” value in experiment [1] (setting [4]) was found to be 0.00122 ± 0.0049; in experiment [2] (setting [4]), 0.00128 ± 0.0057; in experiment [3] (setting [5]), 0.0022 ± 0.0043; in experiment [3] (setting [6]), 0.000241 ± 0.02.
On to UCCUGGAUGAGCUUGCAUACAUUUUAGUAA, for which the “pre-steady-state target cleavage rate” value came to 0.00065 ± 0.011 in experiment [1] (setting [4]), 0.00126 ± 0.0054 in experiment [2] (setting [4]), 0.000446 ± 0.0067 in experiment [3] (setting [5]) and 0.000229 ± 0.031 in experiment [3] (setting [6]).
As to UCCUGCAUGAGCUUGCAUAGUAUUUUCAAA, the “pre-steady-state target cleavage rate” value worked out at 0.000695 ± 0.0074 in experiment [1] (setting [4]), 0.00169 ± 0.0035 in experiment [2] (setting [4]), 0.000989 ± 0.0042 in experiment [3] (setting [5]) and 0.000497 ± 0.013 in experiment [3] (setting [6]).
With UCCUGCUACAGCUUGCAAUGUAUUUUCAAA, the “pre-steady-state target cleavage rate” value in experiment [1] (setting [4]) stood at 0.000663 ± 0.0068; in experiment [2] (setting [4]) it was 0.000731 ± 0.0098; in experiment [3] (setting [5]), 0.00113 ± 0.0074; in experiment [3] (setting [6]) it was 0.000581 ± 0.009.
In the case of UCCUGGAUCAGCUUGCAUACAAUUUAGAAA, the “pre-steady-state target cleavage rate” value in experiment [1] (setting [4]) came to 0.000666 ± 0.0082; in experiment [2] (setting [4]) it was 0.00108 ± 0.0062; in experiment [3] (setting [5]), 0.00145 ± 0.0042; in experiment [3] (setting [6]) it was 0.000793 ± 0.011.
On the same counts, the results for UCCUGGAUGAGCUUCCAUAGUAUAUAGUUA are 0.000364 ± 0.017, 0.000252 ± 0.014, 0.000454 ± 0.0079 and 0.000157 ± 0.048.
The corresponding values for UCCUGGAUGUGCUUGCAUAGUUUUAAGUUA are 0.003 ± 0.0034, 0.00288 ± 0.0037, 0.00172 ± 0.005 and 0.000433 ± 0.021.
Consider UCCUGGAUCAGCUUGCAUUCUAUUUUCAAA, for which the “pre-steady-state target cleavage rate” value came to 0.00051 ± 0.0092 in experiment [1] (setting [4]), 0.000721 ± 0.0071 in experiment [2] (setting [4]), 0.000254 ± 0.014 in experiment [3] (setting [5]) and 0.000105 ± 0.058 in experiment [3] (setting [6]).
On the same counts, the results for UCCUGGAUGUCCUUGCAUAGUUAUUAGUAA are 0.00121 ± 0.0057, 0.000766 ± 0.0099, 0.000529 ± 0.0083 and 0.000109 ± 0.067.
For the sequence UCCUGGAUGAGCUUGCAUAGUAUUUAUUA, the “pre-steady-state target cleavage rate” value in experiment [1] (setting [4]) was 0.00103 ± 0.0062; in experiment [2] (setting [4]), 0.00227 ± 0.0035; in experiment [3] (setting [5]) it was 0.00268 ± 0.0022; in experiment [3] (setting [6]), 0.000638 ± 0.016.
Consider UCCUGGAUGUCCUUGCAUACUAUUAAGUUA, for which the “pre-steady-state target cleavage rate” value came out at 0.000887 ± 0.0051 in experiment [1] (setting [4]), 0.00091 ± 0.0064 in experiment [2] (setting [4]), 0.00032 ± 0.011 in experiment [3] (setting [5]) and 0.000287 ± 0.015 in experiment [3] (setting [6]).
The corresponding values for UCCUGGUAGAGCUUCCAUAGUAUUUAGUUA are 0.00191 ± 0.004, 0.00122 ± 0.0045, 0.00122 ± 0.006 and 0.000163 ± 0.046.
As to UCCUGGAUGUCGAUGCAUAGUAUUUAGUCUA, the “pre-steady-state target cleavage rate” value came out at 0.00123 ± 0.0056 in experiment [1] (setting [4]), 0.00101 ± 0.0076 in experiment [2] (setting [4]), 0.00144 ± 0.0045 in experiment [3] (setting [5]) and 0.000134 ± 0.053 in experiment [3] (setting [6]).
For UCCUCCUACAGCUUGCAUUCAAUUUACAAA, the “pre-steady-state target cleavage rate” value in experiment [1] (setting [4]) is 0.000509 ± 0.0075; in experiment [2] (setting [4]), 0.000472 ± 0.01; in experiment [3] (setting [5]) it was 0.00137 ± 0.0059; in experiment [3] (setting [6]), 0.000243 ± 0.026.
As to UCCUGGAUGUCCUUCCAAAGUAUUUAGUUA, the “pre-steady-state target cleavage rate” value in experiment [1] (setting [4]) was 0.000147 ± 0.015; in experiment [2] (setting [4]) it was 0.000243 ± 0.011; in experiment [3] (setting [5]) it was 0.00026 ± 0.012; in experiment [3] (setting [6]), 0.00038 ± 0.013.
In the case of UCCUGGAACAGGUUGCAUAGUAUUUACAAA, the “pre-steady-state target cleavage rate” value in experiment [1] (setting [4]) was determined as 0.00102 ± 0.004; in experiment [2] (setting [4]), 0.00147 ± 0.0038; in experiment [3] (setting [5]), 0.0012 ± 0.003; in experiment [3] (setting [6]), 0.000104 ± 0.059.
With “UCCUGGAUGUCGUUGCAUAGUUAAAUCAAA [g10:g18:cont:t1A]”, the “pre-steady-state target cleavage rate” value was 0.00023 ± 0.019 in experiment [1] (setting [4]), 0.000555 ± 0.011 in experiment [2] (setting [4]), 0.000615 ± 0.012 in experiment [3] (setting [5]) and 0.0001 ± 0.038 in experiment [3] (setting [6]).
For the sequence UCCUGCUACAGCUUGCAAAGUAUUUUCAAA, the “pre-steady-state target cleavage rate” value in experiment [1] (setting [4]) turned out to be 0.00145 ± 0.0036; in experiment [2] (setting [4]) it was 0.00274 ± 0.0036; in experiment [3] (setting [5]), 0.00145 ± 0.0034; in experiment [3] (setting [6]), 0.000166 ± 0.02.
UCCUGGAUGUCCUUGCAUAAGUAUUUAGUUA: the “pre-steady-state target cleavage rate” value in experiment [1] (setting [4]) is 0.00113 ± 0.0043; in experiment [2] (setting [4]), 0.00107 ± 0.0063; in experiment [3] (setting [5]), 0.00186 ± 0.0045; in experiment [3] (setting [6]), less than 0.0001.
In the case of UCCUGGAACAGCUUGCUUAGUAUUUUCAAA, the “pre-steady-state target cleavage rate” value in experiment [1] (setting [4]) came out at 0.000836 ± 0.0057; in experiment [2] (setting [4]) it was 0.00156 ± 0.0043; in experiment [3] (setting [5]), 0.000764 ± 0.0048; in experiment [3] (setting [6]), 0.000286 ± 0.02.
Turning to “UCCUGGAUGUCGAACCAUAGUAUUUAGUUG [g2:g15:cont:t1G]”, the “pre-steady-state target cleavage rate” value in experiment [1] (setting [4]) was determined as 0.00014 ± 0.016; in experiment [2] (setting [4]) it was 0.000327 ± 0.013; in experiment [3] (setting [5]), 0.000133 ± 0.028; in experiment [3] (setting [6]) it was 0.000172 ± 0.036.
As for UCCUGCUACAGCUUGCAUUGUAUUUACAAA, the “pre-steady-state target cleavage rate” value in experiment [1] (setting [4]) amounted to 0.000893 ± 0.006; in experiment [2] (setting [4]) it was 0.00137 ± 0.0043; in experiment [3] (setting [5]) it was 0.00313 ± 0.0028; in experiment [3] (setting [6]) it was 0.000437 ± 0.011.
As for UCCUGGAUGUGCUUGCAUAGUAUUAUGAAA, the “pre-steady-state target cleavage rate” value in experiment [1] (setting [4]) amounted to 0.00109 ± 0.0067; in experiment [2] (setting [4]), 0.00231 ± 0.0033; in experiment [3] (setting [5]) it was 0.000647 ± 0.0061; in experiment [3] (setting [6]), 0.000547 ± 0.016.
